No constants are given. Whether binding was seen depends on the method and setting. Binding seen in cells or lysates may run through a third protein. For some of these results: A result given as binding can be weak or reduced; the word gives no strength. Tags and fused reporters may be left off the sequences shown.

For experiment [1], the target named is mSNPH-Myc (mouse Syntaphilin, wild type) (mouse). Description: co-IP; mitochondrial fraction of CAD cells transfected with mSNPH-Myc and EGFP-mDISC1; ELB lysis buffer, overnight at 4 °C.
Experiment [2] shares this target. Description: co-IP; lysates of CAD cells transfected with EGFP-mDISC1 and mSNPH-Myc; immunoprecipitated with anti-Myc or anti-GFP, blotted with anti-GFP and anti-Myc; ELB lysis buffer (50 mM Tris pH 8.0, 250 mM NaCl, 0.1 % NP-40, 5 mM EDTA), overnight at 4 °C.
For experiment [3], the target named is mSNPH-Myc ∆481–495 (mouse). Description: co-IP; lysates of transfected cells (cell line not stated) with FLAG-mDISC1 and mSNPH-Myc deletion mutants; ELB lysis buffer (50 mM Tris pH 8.0, 250 mM NaCl, 0.1 % NP-40, 5 mM EDTA), overnight at 4 °C.
Experiment [4] has as its target mSNPH-Myc ∆447–455 (mouse). The description is as above.
Experiment [5] has as its target mSNPH-Myc ∆401–495 (mouse). Described as above.
The target in experiment [6] is mSNPH-Myc ∆87–159 (mouse). Described as above.
The next experiment deals with mSNPH-Myc ∆1–86 (mouse). The description is as above.

B1: EGFP-mDISC1 (mouse Disrupted-in-schizophrenia 1) (protein, UniProt Q811T9 1-852)
chain: MQGGGPRGAPIHSPSHGADSGHGLPPAVAPQRRRLTRRPGYMRSTAGSGIGFLSPAVGMPHPSSAGLTGQQSQHSQSKAGQCGLDPGSHCQASLVGKPFLKSSLVPAVASEGHLHPAQRSMRKRPVHFAVHSKNDSRQSERLTGSFKPGDSGFWQELLSSDSFKSLAPSLDAPWNKGSRGLKTVKPLASPALNGPADIASLPGFQDTFTSSFSFIQLSLGAAGERGEAEGCLPSREAEPLHQRPQEMAAEASSSDRPHGDPRHLWTFSLHAAPGLADLAQVTRSSSRQSECGTVSSSSSDTGFSSQDASSAGGRGDQGGGWADAHGWHTLLREWEPMLQDYLLSNRRQLEVTSLILKLQKCQEKVVEDGDYDTAETLRQRLEELEQEKGRLSWALPSQQPALRSFLGYLAAQIQVALHGATQRAGSDDPEAPLEGQLRTTAQDSLPASITRRDWLIREKQRLQKEIEALQARMSALEAKEKRLSQELEEQEVLLRWPGCDLMALVAQMSPGQLQEVSKALGETLTSANQAPFQVEPPETLRSLRERTKSLNLAVRELTAQVCSGEKLCSSLRRRLSDLDTRLPALLEAKMLALSGSCFSTAKELTEEIWALSSEREGLEMFLGRLLALSSRNSRRLGIVKEDHLRCRQDLALQDAAHKTRMKANTVKCMEVLEGQLSSCRCPLLGRVWKADLETCQLLMQSLQLQEAGSSPHAEDEEQVHSTGEAAQTAALAVPRTPHPEEEKSPLQVLQEWDTHSALSPHCAAGPWKEDSHIVSAEVGEKCEAIGVKLLHLEDQLLGAMYSHDEALFQSLQGELQTVKETLQAMILQLQPTKEAGEASASYPTAGAQETEA
As to B1, the binding entry in experiment [1] and in experiment [2] was “binds” in each case.

B2: FLAG-mouse DISC1 (FLAG-mDISC1) (protein, UniProt Q811T9 1-852)
chain: B1 chain
Turning to B2, the binding result in experiment [3] is given as “no binding”; in experiment [4] it was “no binding”; in experiment [5], “no binding”; in experiment [6] it was “binds”; with mSNPH-Myc ∆1–86 (mouse) it was “binds”.

These data come from article PMC4930613.
